How the values were obtained:
[1] = HO2CPh{Tm} recovery from spiked mouse liver lysate with or without SPE (LC-MS/MS); set-up: species or system C57BL/6J mice
[2] = LC-MS/MS method validation (LOD, LOQ) for HO2CPh{Ln} tags
[3] = Solid-phase extraction of HO2CPh{Ln} tags: recovery per fraction on different cartridges; conditions: SPE
[4] = HO2CPh{Tm} recovery in elution fractions of SPE columns (Supp. Fig. 26)
[5] = peptide synthesis; PyOAP, DIPEA (conjugation in DMSO); conditions: conjugation step, based on PrRP31; 1 step, TFA salt
[6] = general procedure: peptide synthesis; PyOAP, DIPEA (conjugation in DMSO); conditions: conjugation step
[7] = 1, 2 and 5 nM triplicate solutions in presence of mouse liver lysate (matrix blank), HO2CPh{Y} internal standard, 10 mM NH4OAc diluent, n = 9 points

## O=C([O-])CN1CCN2CCN(CC(=O)[O-])CCN(CC1)Cc1cccc(n1)-c1cnnn1Cc1cc(-c3ccc(C(=O)O)cc3)cc(n1)C2.[Tm+3] [HO2CPh{Tm}]
[1]; Supp. Fig. 27B, experiment II, Strata-X SPE, biological replicate 1, average of 3 technical replicates
  HO2CPh{Tm} - recovery, % average: 61.9%
[1]; Supp. Fig. 27B, experiment II, Strata-X SPE, biological replicate 1, technical replicate 1
  HO2CPh{Tm} - recovery, %: 62.2%
[1]; Supp. Fig. 27B, experiment II, Strata-X SPE, biological replicate 1, technical replicate 2
  HO2CPh{Tm} - recovery, %: 61.5%
[1]; Supp. Fig. 27B, experiment II, Strata-X SPE, biological replicate 1, technical replicate 3
  HO2CPh{Tm} - recovery, %: 62.1%
[1]; Supp. Fig. 27B, experiment II, Strata-X SPE, biological replicate 2, average of 3 technical replicates
  HO2CPh{Tm} - recovery, % average: 70.2%
[1]; Supp. Fig. 27B, experiment II, Strata-X SPE, biological replicate 2, technical replicate 1
  HO2CPh{Tm} - recovery, %: 65.2%
[1]; Supp. Fig. 27B, experiment II, Strata-X SPE, biological replicate 2, technical replicate 2
  HO2CPh{Tm} - recovery, %: 72.8%
[1]; Supp. Fig. 27B, experiment II, Strata-X SPE, biological replicate 2, technical replicate 3
  HO2CPh{Tm} - recovery, %: 72.6%
[1]; Supp. Fig. 27C, experiment III, Strata-X-C SPE, biological replicate 1, average of 3 technical replicates
  HO2CPh{Tm} - recovery, % average: 58.0%
[1]; Supp. Fig. 27C, experiment III, Strata-X-C SPE, biological replicate 1, technical replicate 1
  HO2CPh{Tm} - recovery, %: 55.3%
[1]; Supp. Fig. 27C, experiment III, Strata-X-C SPE, biological replicate 1, technical replicate 2
  HO2CPh{Tm} - recovery, %: 58.4%
[1]; Supp. Fig. 27C, experiment III, Strata-X-C SPE, biological replicate 1, technical replicate 3
  HO2CPh{Tm} - recovery, %: 60.2%
[1]; Supp. Fig. 27C, experiment III, Strata-X-C SPE, biological replicate 2, average of 3 technical replicates
  HO2CPh{Tm} - recovery, % average: 78.0%
[1]; Supp. Fig. 27C, experiment III, Strata-X-C SPE, biological replicate 2, technical replicate 1
  HO2CPh{Tm} - recovery, %: 76.7%
[1]; Supp. Fig. 27C, experiment III, Strata-X-C SPE, biological replicate 2, technical replicate 2
  HO2CPh{Tm} - recovery, %: 81.4%
[1]; Supp. Fig. 27C, experiment III, Strata-X-C SPE, biological replicate 2, technical replicate 3
  HO2CPh{Tm} - recovery, %: 75.9%
[2]; 10 nM pentaplicate solutions in mouse liver matrix blank, HO2CPh{Y} internal standard, n = 5
  accuracy: R (recovery): 101.80%
[2]; 10 nM pentaplicate solutions in mouse liver matrix blank, n = 5
  accuracy: u(R) (recovery uncertainty): 3.4%
[2]; [7]
  limit of detection (LOD): 0.26 nM
  limit of quantification (LOQ): 0.78 nM
[2]; F-test against Fcrit, duplicate calibration solutions
  linearity: linear: yes
[2]; F-test, duplicate calibration solutions, Fcrit 3.97 (Lu), 3.58 (Tm)
  linearity: F: 0.04
[2]; c 50.0 nM, pentaplicate solutions in mouse liver matrix blank
  repeatability (precision): repeatable: yes
[2]; c 50.0 nM, pentaplicate solutions in mouse liver matrix blank, HO2CPh{Y} internal standard
  repeatability (precision): rel. std. dev.: 6.0%
[2]; t-test against tcrit 2.78, 10 nM pentaplicate solutions
  accuracy: accurate: yes
[2]; t-test, 10 nM pentaplicate solutions, tcrit 2.78
  accuracy: t: 0.53
[3]; chr...bond C18 ec (first block), fraction 1, Supp. Fig. 26B
  recovery: 0.0%
[3]; chr...bond C18 ec (first block), fraction 2, Supp. Fig. 26B
  recovery: 0.0%
[3]; chr...bond C18 ec (first block), fraction 3, Supp. Fig. 26B
  recovery: 97.3%
[3]; chr...bond C18 ec (first block), fraction 4, Supp. Fig. 26B
  recovery: 1.0%
[3]; chr...bond C18 ec (second block), fraction 1, Supp. Fig. 26B
  recovery: 0.0%
[3]; chr...bond C18 ec (second block), fraction 2, Supp. Fig. 26B
  recovery: 0.0%
[3]; chr...bond C18 ec (second block), fraction 3, Supp. Fig. 26B
  recovery: 99.2%
[3]; chr...bond C18 ec (second block), fraction 4, Supp. Fig. 26B
  recovery: 1.0%
[3]; sep-pak tC18, fraction 1, Supp. Fig. 26A
  recovery: 9.0%
[3]; sep-pak tC18, fraction 2, Supp. Fig. 26A
  recovery: 84.4%
[3]; sep-pak tC18, fraction 3, Supp. Fig. 26A
  recovery: 2.9%
[3]; sep-pak tC18, fraction 4, Supp. Fig. 26A
  recovery: 1.1%
[3]; strata-X, fraction 1, Supp. Fig. 26B
  recovery: 0.0%
[3]; strata-X, fraction 2, Supp. Fig. 26B
  recovery: 0.0%
[3]; strata-X, fraction 3, Supp. Fig. 26B
  recovery: 99.2%
[3]; strata-X, fraction 4, Supp. Fig. 26B
  recovery: 0.0%
[3]; strata-X-C, fraction 1, Supp. Fig. 26A
  recovery: 0.0%
[3]; strata-X-C, fraction 2, Supp. Fig. 26A
  recovery: 0.0%
[3]; strata-X-C, fraction 3, Supp. Fig. 26A
  recovery: 59.1%
[3]; strata-X-C, fraction 4, Supp. Fig. 26A
  recovery: 38.1%
[3]; strata-X-CW, fraction 1, Supp. Fig. 26A
  recovery: 0.0%
[3]; strata-X-CW, fraction 2, Supp. Fig. 26A
  recovery: 40.3%
[3]; strata-X-CW, fraction 3, Supp. Fig. 26A
  recovery: 36.2%
[3]; strata-X-CW, fraction 4, Supp. Fig. 26A
  recovery: 1.4%
[4]; Supp. Fig. 26A, SPE column chr...bond HR-X, fraction 1
  HO2CPh{Tm} - recovery, %: 0.0%
[4]; Supp. Fig. 26A, SPE column chr...bond HR-X, fraction 2
  HO2CPh{Tm} - recovery, %: 0.762%
[4]; Supp. Fig. 26A, SPE column chr...bond HR-X, fraction 3
  HO2CPh{Tm} - recovery, %: 93.5%
[4]; Supp. Fig. 26A, SPE column sep-pak C18, fraction 1
  HO2CPh{Tm} - recovery, %: 0.0%
[4]; Supp. Fig. 26A, SPE column sep-pak C18, fraction 2
  HO2CPh{Tm} - recovery, %: 8.9%
[4]; Supp. Fig. 26A, SPE column sep-pak C18, fraction 3
  HO2CPh{Tm} - recovery, %: 9.7%
[4]; Supp. Fig. 26A, SPE column sep-pak C18, fraction 4
  HO2CPh{Tm} - recovery, %: 79.1%
[4]; Supp. Fig. 26A, SPE column sep-pak C18, second line printed as fraction 4
  HO2CPh{Tm} - recovery, %: 0.0%
[4]; Supp. Fig. 26B, SPE column strata-X-C, fraction 1
  HO2CPh{Tm} - recovery, %: 0.0%
[4]; Supp. Fig. 26B, SPE column strata-X-C, fraction 2
  HO2CPh{Tm} - recovery, %: 0.0%
[4]; Supp. Fig. 26B, SPE column strata-X-C, fraction 3
  HO2CPh{Tm} - recovery, %: 102.2%
[4]; Supp. Fig. 26B, SPE column strata-X-C, fraction 4
  HO2CPh{Tm} - recovery, %: 0.0%
[4]; Supp. Fig. 26B, SPE column strata-X-C, second line printed as fraction 4
  HO2CPh{Tm} - recovery, %: 0.0%

## SRTHRHSMEIRTPDINPAWYASRGIRPVG NHRF2
[5]
  conjugation yield: 79%

## {Lu}PhCO-AYFHVG-NH2
[6]; based on [HCO2CPh{Lu}]+[TFA]−·1.4TFA·3.2H2O
  conjugation yield: ≤96%

## {Tm}BnCO-AYFHVG-NH2
[6]; based on [HCO2CBn{Tm}]+[TFA]−·0.2TFA·7.0H2O
  conjugation yield: ≤87%

## {Y}PhCO-AYFHVG-NH2
[6]; based on [HCO2CPh{Y}]+[TFA]−·0.6TFA·4.8H2O
  conjugation yield: ≤89%
